Measured values: patent US20240254229A1 (Molecular Partners, published 2024)
These are yes or no findings as the source states them, for the method shown. Some entries that bind do so weakly or less than the wild type.

Amino acid sequences for entries named in this document (tags omitted). Residues count along the entry.
UniProt P20138, residues 18-259: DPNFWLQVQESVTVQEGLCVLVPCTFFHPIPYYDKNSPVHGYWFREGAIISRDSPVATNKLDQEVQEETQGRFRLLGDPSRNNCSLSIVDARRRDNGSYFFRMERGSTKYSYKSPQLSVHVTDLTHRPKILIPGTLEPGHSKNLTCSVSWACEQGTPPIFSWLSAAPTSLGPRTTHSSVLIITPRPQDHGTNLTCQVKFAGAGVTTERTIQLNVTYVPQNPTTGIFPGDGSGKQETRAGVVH

Assays:
[1] = target: T1, hCD33 and hCD123 immobilized simultaneously on one switchSENSE chip (ratio 2:1, CD33:CD123) (human) (UniProt P20138+P26951); assay: switchSENSE, hCD33 and hCD123 co-immobilised 2:1; panel headed CD123, column koff2 (slow phase, avidity per paragraph 695)
[2] = target: T1, hCD33 and hCD123 immobilized simultaneously on one switchSENSE chip (ratio 2:1, CD33:CD123) (human); assay: switchSENSE, hCD33 and hCD123 co-immobilised 2:1; panel headed CD33, column koff2 (slow phase, avidity per paragraph 695)
[3] = target: T1, hCD33 and hCD123 immobilized simultaneously on one switchSENSE chip (ratio 2:1, CD33:CD123) (human); assay: switchSENSE, CD33 and CD123 on one chip
[4] = target: hCD33 (recombinant, construct not stated) (human) (UniProt P20138); assay: switchSENSE, hCD33 and hCD123 co-immobilised 2:1 on DNA nanolevers; panel headed CD33, column kon1
[5] = target: T1, hCD33 and hCD123 immobilized simultaneously on one switchSENSE chip (ratio 2:1, CD33:CD123) (human); assay: switchSENSE, hCD33 and hCD123 co-immobilised 2:1; panel headed CD33, column kon2 (second phase, avidity per paragraph 695)
[6] = target: T1, hCD33 and hCD123 immobilized simultaneously on one switchSENSE chip (ratio 2:1, CD33:CD123) (human); assay: switchSENSE, hCD33 and hCD123 co-immobilised 2:1; panel headed CD123, column kon2 (second phase, avidity per paragraph 695)
[7] = target: hCD33 (recombinant, construct not stated) (human) (UniProt P20138); assay: switchSENSE, hCD33 and hCD123 co-immobilised 2:1; panel headed CD33, column koff1
[8] = target: T2, hCD123 (recombinant, construct not stated) (human) (UniProt P26951); assay: switchSENSE, hCD33 and hCD123 co-immobilised 2:1; panel headed CD123, column koff1
T2 sequence (looked up): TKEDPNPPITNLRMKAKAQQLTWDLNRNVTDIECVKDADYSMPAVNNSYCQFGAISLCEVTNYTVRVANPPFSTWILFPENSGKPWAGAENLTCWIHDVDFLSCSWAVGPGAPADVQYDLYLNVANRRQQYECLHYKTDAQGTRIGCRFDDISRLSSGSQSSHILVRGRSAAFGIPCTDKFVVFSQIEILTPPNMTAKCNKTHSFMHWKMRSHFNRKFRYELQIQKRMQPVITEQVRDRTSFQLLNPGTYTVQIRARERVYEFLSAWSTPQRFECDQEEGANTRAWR

[9] = target: T2, hCD123 (recombinant, construct not stated) (human); assay: switchSENSE, hCD33 and hCD123 co-immobilised 2:1; panel headed CD123, column kon1
[10] = target: Molm-13 N1 tumor cells (carrying CD123, CD33 and CD70) (human) (UniProt P20138+P26951+P32970); assay: flow cytometry on Molm-13 N1 cells, anti-DARPin rabbit antibody and Alexa Fluor 647 secondary antibody, 20 µM HSA
[11] = target: T2, hCD123 (recombinant, construct not stated) (human); assay: SPR (Sierra SPR-32, Bruker); DARPin protein #56 held on immobilized HSA, 500 nM hCD123 injected; single-injection control (A3) and sequential run (A1, after hCD70)
[12] = target: hCD33 (recombinant, construct not stated) (human) (UniProt P20138); assay: SPR, sequential injections
[13] = target: T2, hCD123 (recombinant, construct not stated) (human); assay: SPR, sequential injections
[14] = target: T3, hCD70 (recombinant, construct not stated) (human) (UniProt P32970); assay: SPR, sequential injections
T3 sequence (looked up): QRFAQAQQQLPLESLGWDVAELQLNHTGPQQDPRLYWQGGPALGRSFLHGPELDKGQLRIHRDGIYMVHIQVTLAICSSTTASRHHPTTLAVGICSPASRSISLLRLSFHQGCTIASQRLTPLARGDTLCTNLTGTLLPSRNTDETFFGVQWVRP

[15] = target: T3, hCD70 (recombinant, construct not stated) (human); assay: SPR (Sierra SPR-32, Bruker); DARPin protein #56 held on immobilized HSA, 200 nM hCD70 injected; single-injection control (A2) and sequential run (A1)
[16] = target: hCD33 (recombinant, construct not stated) (human) (UniProt P20138); assay: SPR trace
[17] = target: T2, hCD123 (recombinant, construct not stated) (human); assay: SPR trace
[18] = target: T3, hCD70 (recombinant, construct not stated) (human); assay: SPR trace
[19] = target: hCD33 (recombinant, construct not stated) (human) (UniProt P20138); assay: SPR, measured against calculated sensorgram
[20] = target: T2, hCD123 (recombinant, construct not stated) (human); assay: SPR, measured against calculated sensorgram
[21] = target: T3, hCD70 (recombinant, construct not stated) (human); assay: SPR, measured against calculated sensorgram
[22] = target: hCD33 (recombinant, construct not stated) (human) (UniProt P20138); assay: SPR (Sierra SPR-32, Bruker); DARPin protein #56 held on immobilized HSA, 150 nM hCD33 injected as the first part of the dual injection; single-injection control and sequential run (A1, after hCD70 and hCD123)
[23] = target: T1, hCD33 and hCD123 immobilized simultaneously on one switchSENSE chip (ratio 2:1, CD33:CD123) (human); assay: switchSENSE, hCD33 and hCD123 co-immobilised 2:1; panel headed CD123, y axis koff, second column (slow phase, avidity per paragraph 694)
[24] = target: T1, hCD33 and hCD123 immobilized simultaneously on one switchSENSE chip (ratio 2:1, CD33:CD123) (human); assay: switchSENSE, hCD33 and hCD123 co-immobilised 2:1; panel headed CD123, y axis kon, second column (second phase, avidity per paragraph 692)
[25] = target: T2, hCD123 (recombinant, construct not stated) (human); assay: switchSENSE, hCD33 and hCD123 co-immobilised 2:1; panel headed CD123, y axis kon
[26] = target: T1, hCD33 and hCD123 immobilized simultaneously on one switchSENSE chip (ratio 2:1, CD33:CD123) (human); assay: switchSENSE, hCD33 and hCD123 co-immobilised 2:1; panel headed CD33, column kon2 (second phase, avidity per paragraph 692)
[27] = target: T2, hCD123 (recombinant, construct not stated) (human); assay: switchSENSE, hCD33 and hCD123 co-immobilised 2:1; panel headed CD123, y axis koff
[28] = target: T1, hCD33 and hCD123 immobilized simultaneously on one switchSENSE chip (ratio 2:1, CD33:CD123) (human); assay: switchSENSE; KD,2 (avidity)
[29] = target: T1, hCD33 and hCD123 immobilized simultaneously on one switchSENSE chip (ratio 2:1, CD33:CD123) (human); assay: switchSENSE, hCD33 and hCD123 co-immobilised 2:1; panel headed CD33, column koff2 (slow phase, avidity per paragraph 692)
[30] = target: hCD33 (recombinant, construct not stated) (human) (UniProt P20138); assay: switchSENSE, CD33 and CD123 on one chip
[31] = target: hCD33 (recombinant, construct not stated) (human) (UniProt P20138); assay: switchSENSE, hCD33 and hCD123 co-immobilised 2:1; panel headed CD33, column kon1

Measured: binding

B1: DARPin® protein #27 (designed binder)
chain: DLGKKLLEAALEGQLDEVRELLKAGADVNAKDQEGYTPLHLAAALGHLEIVEVLLKAGADVNAKDSIGRTPLHLAAYKGHLEIVEVLLKAGADVNAQDLLGETPADLAAEQGHQDIAEVLQKAAGSPTPTPTTPTPTPTTPTPTPTGSDLGVKLLLAASRGQLDEVRILLKAGADVNAKDIDEGYTPLHIAAYYGHLEIVEVLLKAGADVNAKDRYGKTPLHLAAISGHLEIVEVLLKAGADVNAQDDKGDTPADLAADYGHQDIAEVLQKAAGSPTPTPTTPTPTPTTPTPTPTGSDLGQKLLEAAWAGQDDEVRELLKAGADVNAKNSRGWTPLHTAAQTGHLEIFEVLLKAGADVNAKDDKGVTPLHLAAALGHLEIVEVLLKAGADVNAQDSWGTTPADLAAKYGHEDIAEVLQKAA
notes: CD123-CD33-CD3; also called αCD123-aCD33-αCD3_1; not shown: N-terminal His-tag
binds: [1] | [2] | [3] | [4] | [5] | [6] | [7] | [8] | [9]

B2: DARPin® protein #56 (designed binder)
chain: DLGKKLLEAARAGQDDEVRELLKAGADVNAKDYFSHTPLHLAARNGHLKIVEVLLKAGADVNAKDFAGKTPLHLAAADGHLEIVEVLLKAGADVNAQDIFGKTPADIAADAGHEDIAEVLQKAAGSPTPTPTTPTPTPTTPTPTPTGSDLGKKLLEAARAGQDDEVRELLKAGADVNAKDYFSHTPLHLAARNGHLKIVEVLLKAGADVNAKDFAGKTPLHLAAADGHLEIVEVLLKAGADVNAQDIFGKTPADIAADAGHEDIAEVLQKAAGSPTPTPTTPTPTPTTPTPTPTGSDLGVKLLLAAERGQLDEVRILLKAGADVNAKDIAEGYTPLHIAAYQGHLEIVEVLLKAGADVNAKDRYGKTPLHLAAIGGHLEIVEVLLKAGADVNAQDNKGSTPADLAADYGHQDIAEVLQKAAGSPTPTPTTPTPTPTTPTPTPTGSDLGKKLLEAALEGQLDEVRELLKAGADVNAKDQEGYTPLHLAAALGHLEIVEVLLKAGADVNAKDQIGRTPLHLAAYKGHLEIVEVLLKAGADVNAQDIIGQTPADLAAQRGHQDIAEVLQKAAGSPTPTPTTPTPTPTTPTPTPTGSDLGIKLLTAAYDGQLDEVRILLKAGADVNAKDLRGQTPLHYAAGLGHLEIVEVLLKAGADVNAKDLHGWTPLHLAAWSGHLEIVEVLLKAGADVNAQDVEGVTPADLAAVQGHQDIAEVLQKAAGSPTPTPTTPTPTPTTPTPTPTGSDLGQKLLEAAWAGQDDEVRELLKAGADVNAKNSRGWTPLHTAAQTGHLEIFEVLLKAGADVNAKNDKRVTPLHLAAALGHLEIVEVLLKAGADVNARDSWGTTPADLAAKYGHQDIAEVLQKAA
notes: HSA-HSA-CD33-CD123-CD70-CD3; not shown: N-terminal His-tag
binds: [10] | [11] | [12] | [13] | [14] | [15] | [16] | [17] | [18] | [19] | [20] | [21] | [22]

B3: DARPin® protein #20 (designed binder)
chain: DLGKKLLEAARAGQDDEVRILMANGADVNALDWLGHTPLHLAAYEGHLEIVEVLLKNGADVNAIDDNNGFTPLHLAAIDGHLEIVEVLLKNGADVNAQDKFGKTAFDISIDNGNEDLAEILQKAAGSPTPTPTTPTPTPTTPTPTPTGSDLGDKLLLAATSGQDDEVRILLAAGADVNAKDYDGDTPLHLAADEGHLEIVEVLLKAGADVNAKDYSGSTPLHAAAAYGHLEIVEVLLKAGADVNAQDVFGYTPADLAAYVGHEDIAEVLQKAAGSPTPTPTTPTPTPTTPTPTPTGSDLGQKLLEAAWAGQDDEVRILLAAGADVNAKNSRGWTPLHTAAQTGHLEIFEVLLKAGADVNAKNDKRVTPLHLAAALGHLEIVEVLLKAGADVNARDSWGTTPADLAAKYGHGDIAEVLQKLA
notes: CD123-CD33-CD3; also called αCD123-αCD33-αCD3_1
binds: [23] | [24] | [3] | [4] | [25] | [26] | [27] | [28] | [7] | [29]

B4: DARPin® protein #40 (designed binder)
chain: DLGKKLLEAARAGQDDEVRELLKAGADVNAKDKDGYTPLHLAAREGHLEIVEVLLKAGADVNAKDKDGYTPLHLAAREGHLEIVEVLLKAGADVNAQDKSGKTPADLAADAGHEDIAEVLQKAAGSPTPTPTTPTPTPTTPTPTPTGSDLGVKLLLAASRGQLDEVRILLKAGADVNAKDIDEGYTPLHIAAYYGHLEIVEVLLKAGADVNAKDRYGKTPLHLAAISGHLEIVEVLLKAGADVNAQDDKGDTPADLAADYGHQDIAEVLQKAAGSPTPTPTTPTPTPTTPTPTPTGSDLGQKLLEAAWAGQDDEVRELLKAGADVNAKNSRGWTPLHTAAQTGHLEIFEVLLKAGADVNAKDDKGVTPLHLAAALGHLEIVEVLLKAGADVNAQDSWGTTPADLAAKYGHEDIAEVLQKAA
notes: also called Ni2C-αCD33-αCD3
binds: [30] | [31] | [7]
